Test results as given in US20060281736A1, “Product comprising at least one phosphatase cdc25 inhibitor combined with at least one other anticancer agent” (priority 2003, published 2006).
pIC50: −log10 of the molar value. For some assays here: At least one read-out could not be matched to a standard name with certainty. Some entries share one result that the patent states for a list of compounds.

Legend:
[1] = molecular target: T1, MBP-Cdc25C protein (Homo sapiens, UniProt P30307); assay: Phosphatase activity of the purified Cdc25C recombinant enzyme (OMFP dephosphorylation); assay type: biochemical; settings: read-out: IC50 on the phosphatase activity of the purified Cdc25-C recombinant enzyme
T1 construct: made in house
T1 sequence (P30307 1-473): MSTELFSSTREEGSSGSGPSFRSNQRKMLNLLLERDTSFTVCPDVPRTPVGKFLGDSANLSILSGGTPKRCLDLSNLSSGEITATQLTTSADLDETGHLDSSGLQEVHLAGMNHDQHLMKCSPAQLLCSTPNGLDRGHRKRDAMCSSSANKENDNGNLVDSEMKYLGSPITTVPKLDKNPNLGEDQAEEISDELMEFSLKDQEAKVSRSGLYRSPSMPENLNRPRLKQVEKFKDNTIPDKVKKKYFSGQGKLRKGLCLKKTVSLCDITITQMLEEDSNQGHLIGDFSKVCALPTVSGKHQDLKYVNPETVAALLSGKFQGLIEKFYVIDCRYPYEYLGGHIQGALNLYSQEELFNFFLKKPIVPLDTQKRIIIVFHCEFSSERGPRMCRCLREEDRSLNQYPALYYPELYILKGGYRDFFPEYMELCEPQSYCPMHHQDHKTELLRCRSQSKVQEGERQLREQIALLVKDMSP

[2] = test system: Mia-PaCa2 (human pancreas cancer cells); assay: Antiproliferative activity on Mia-Paca2 cells (WST1); assay type: cell-based; settings: read-out: IC50 on the cell proliferation of Mia-Paca2 lines
Method: ii) Characterization of the Antiproliferative Activity:
By way of example, the effect of a treatment on two human cell lines Mia-Paca2 and DU145 with the compounds of the examples described previously will be studied. The cell lines DU145 (human prostate cancer cells) and Mia-PaCa2 (human pancreas cancer cells) were acquired from the American Tissue Culture Collection (Rockville, Md., USA). The cells placed in 80 μl of Dulbecco's Modified Eagle's medium (Gibco-Brl, Cergy-Pontoise, France) completed with 10% foetal calf serum inactivated by heating (Gibco-Brl, Cergy-Pontoise, France), 50,000 units/l of penicillin and 50 mg/l of streptomycin (Gibco-Brl, Cergy-Pontoise, France), and 2 mM of glutamine (Gibco-Brl, Cergy-Pontoise, France) were seeded on a 96-well plate on day 0. The cells were treated on day 1 for 96 hours with increasing concentrations of each of the compounds to be tested up to 10 μM. At the end of this period, quantification of cell proliferation is evaluated by a colorimetric test based on the cleavage of the tetrazolium salt WST1 by the mitochondrial dehydrogenases in viable cells leading to the formation of formazan (Boehringer Mannheim, Meylan, France). These tests are carried out in duplicate with 8 determinations per concentration tested. […]

[3] = test system: HT-29 cell line (human colon cancer cells); assay: Test of cell proliferation of the HT-29 cells (WST1), products individually or in combination; assay type: cell-based; settings: 120 hours
Method: A) Test of Cell Proliferation of the HT-29 Cells
The protocol for the test used to obtain the results shown is described below:
The HT-29 cell line (human colon cancer cells) were acquired from the American Tissue Culture Collection (Rockville, Md., USA).
The HT-29 cells (2000 cells/well) are cultured in 96-well plates. On day 0, these cells are seeded in 90 μl of Dulbecco's modified Eagle medium (Gibco-Brl, Cergy-Pontoise, France) completed with 10% foetal calf serum inactived by heating (Gibco-Brl, Cergy-Pontoise, France), 50000 units/l of penicillin and 50 mg/l streptomycin (Gibco-Brl, Cergy-Pontoise, France), and 2 mM of glutamine (Gibco-Brl, Cergy-Pontoise, France).
The cells were treated simultaneously with concentrations of two products individually or in combination on Day 1 and for 120 hours.
At the end of the of this period (D6), quantification of cell proliferation is evaluated by a colorimetric test based on the cleavage of the tetrazolium salt WST1 by mitochondrial dehydrogenases in living cells leading to the formation of formazan (Boehringer Mannheim, Meylan, France). These tests are carried out at least in duplicate with 4 determinations for each individual product and for each combination tested. This allows determination of the number of living cells at the end of each treatment.

Question: With “2-ethyl-5-[(4-pyrrolidin-1-ylbutyl)amino]-1,3-benzoxazole-4,7-dione or 2-ethyl-6-[(4-pyrrolidin-1-ylbutyl)amino]-1,3-benzoxazole-4,7-dione [Example 46]” as the compound, how does the pIC50 [1] read?
Answer: The pIC50 was no less than 5.00.

Question: And the pIC50 [2]?
Answer: Its pIC50 is no less than 5.00.

Question: What does the source list for `Cc1nc2c(s1)C(=O)C=C(NCCN1CCCC1)C2=O.O=C(O)c1ccccc1` [Compound A3, 2-methyl-5-[(2-pyrrolidin-1-ylethyl)amino]-1,3-benzothiazole-4,7-dione benzoate]?
Answer: % of surviving cells ([3]; Combination 23: Compound A3 (1.25 × 10^−7 M) individually): 91%; % of surviving cells ([3]; Combination 24: Compound A3 (2.5 × 10^−7 M) individually): 75%; % of surviving cells ([3]; Combination 25: Compound A3 (2.5 × 10^−7 M) individually): 84%; % of surviving cells ([3]; Combination 26: Compound A3 (2.5 × 10^−7 M) individually): 73%; % of surviving cells ([3]; Combination 27: Compound A3 (1.25 × 10^−7 M) individually): 89%; % of surviving cells ([3]; Combination 28: Compound A3 (2.5 × 10^−7 M) individually): 78%

Question: How did the “% of surviving cells” value ([3]; Combination 29: Compound A4 (2.5 × 10^−7 M) individually) turn out when `Cc1nc2c(s1)C(=O)C=C(NCCN1CCCCC1)C2=O.O=C(O)c1ccccc1` [Compound A4, 2-methyl-5-[(2-piperidin-1-ylethyl)amino]-1,3-benzothiazole-4,7-dione benzoate] was run?
Answer: Its value is 94%.

Question: And the “% of surviving cells” value ([3]; Combination 30: Compound A4 (5 × 10^−7 M) individually)?
Answer: Its value is 78%.

Question: What about the “% of surviving cells” value ([3]; Combination 31: Compound A4 (5 × 10^−7 M) individually) of the same compound?
Answer: Its value is 79%.

Question: And the “% of surviving cells” value ([3]; Combination 32: Compound A4 (5 × 10^−7 M) individually)?
Answer: The value was 74%.

Question: And the “% of surviving cells” value ([3]; Combination 33: Compound A4 (5 × 10^−7 M) individually)?
Answer: Its value is 74%.

Question: And the “% of surviving cells” value ([3]; Combination 34: Compound A4 (5 × 10^−7 M) individually)?
Answer: The value was 75%.

Question: What about the “% of surviving cells” value ([3]; Combination 35: Compound A4 (5 × 10^−7 M) individually) of the same compound?
Answer: The value was 71%.

Question: What about the “% of surviving cells” value ([3]; Combination 36: Compound A4 (5 × 10^−7 M) individually) of the same compound?
Answer: Its value is 78%.

Question: Which results are given for `Cl.Cl.Cl.Cl.N[C@@H](CSSC[C@H](N)C(=O)N1CCn2cc(-c3ccccc3)nc2[C@@H]1CC1CCCCC1)C(=O)N1CCn2cc(-c3ccccc3)nc2[C@@H]1CC1CCCCC1` [Compound B9, (1R)-1-[({(2R)-2-amino-3-[(8S)-8-(cyclohexylmethyl)-2-phenyl-5,6-dihydroimidazo[1,2-a]pyrazin-7(8H)-yl]-3-oxopropyl}dithio)methyl]-2-[(8S)-8-(cyclohexylmethyl)-2-phenyl-5,6-dihydroimidazo[1,2-a]pyrazin-7(8H)-yl]-2-oxoethylamine tetrahydrochloride]?
Answer: % of surviving cells ([3]; Combination 9: Compound B9 (10^−5 M) individually): 38%; % of surviving cells ([3]; Combination 36: Compound B9 (5 × 10^−6 M) individually): 80%

Question: Which “% of surviving cells” value ([3]; Combination 1: Compound A1 (5 × 10^−7 M) individually) does the source give for `Cc1nc2c(s1)C(=O)C=C(NCCN(C)C)C2=O.Cl` [Example 2, 5-{[2-(dimethylamino)ethyl]amino}-2-methyl-1,3-benzothiazole-4,7-dione hydrochloride] here?
Answer: The value was 35%.

Question: What about the “% of surviving cells” value ([3]; Combination 2: Compound A1 (2.5 × 10^−7 M) individually) of the same compound?
Answer: Its value is 91%.

Question: What about the “% of surviving cells” value ([3]; Combination 3: Compound A1 (5 × 10^−7 M) individually) of the same compound?
Answer: Its value is 18%.

Question: What about the “% of surviving cells” value ([3]; Combination 4: Compound A1 (5 × 10^−7 M) individually) of the same compound?
Answer: The value was 31%.

Question: And the “% of surviving cells” value ([3]; Combination 5: Compound A1 (5 × 10^−7 M) individually)?
Answer: The value was 27%.

Question: And the “% of surviving cells” value ([3]; Combination 6: Compound A1 (5 × 10^−7 M) individually)?
Answer: Its value is 25%.

Question: And the “% of surviving cells” value ([3]; Combination 7: Compound A1 (5 × 10^−7 M) individually)?
Answer: Its value is 51%.

Question: And the “% of surviving cells” value ([3]; Combination 8: Compound A1 (5 × 10^−7 M) individually)?
Answer: The value was 47%.

Question: And the “% of surviving cells” value ([3]; Combination 9: Compound A1 (5 × 10^−7 M) individually)?
Answer: The value was 36%.

Question: What about the “% of surviving cells” value ([3]; Combination 10: Compound A1 (5 × 10^−7 M) individually) of the same compound?
Answer: The value was 42%.

Question: What about the “% of surviving cells” value ([3]; Combination 11: Compound A1 (5 × 10^−7 M) individually) of the same compound?
Answer: The value was 44%.

Question: And the “% of surviving cells” value ([3]; Combination 12: Compound A1 (5 × 10^−7 M) individually)?
Answer: The value was 33%.

Question: And the “% of surviving cells” value ([3]; Combination 13: Compound A1 (5 × 10^−7 M) individually)?
Answer: Its value is 43%.

Question: What about the “% of surviving cells” value ([3]; Combination 14: Compound A1 (10^−6 M) individually) of the same compound?
Answer: The value was 36%.
